Results are given in words; binding and its absence hold for the method and conditions named. In cells and extracts the contact can be indirect. Some entries that bind do so weakly or less than the wild type.
Biological target: HA-tagged active RhoA (HA-L63RhoA), expressed in 1321N1 astrocytoma cells (UniProt P61586)
Assay: co-IP; mitochondrial fractions of 1321N1 astrocytoma cells infected with GFP or RhoA adenovirus; RhoA immunoprecipitated; WB for RhoA and endogenous PINK1

Amino acid sequences for entries named in this document (tags omitted). A change or cut given only in a name is not applied to a line headed by its entry. Chains listed by the source or under a name are the forms on record and can include a tag or linker. Residues count along the entry.
UniProt P61586: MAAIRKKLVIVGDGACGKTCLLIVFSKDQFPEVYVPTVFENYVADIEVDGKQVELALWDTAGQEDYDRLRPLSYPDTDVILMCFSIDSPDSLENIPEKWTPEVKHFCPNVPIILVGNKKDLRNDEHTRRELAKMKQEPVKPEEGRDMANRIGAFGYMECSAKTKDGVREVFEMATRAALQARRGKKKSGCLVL
HA-tagged active RhoA (HA-L63RhoA), expressed in 1321N1 astrocytoma cells (P61586, form named): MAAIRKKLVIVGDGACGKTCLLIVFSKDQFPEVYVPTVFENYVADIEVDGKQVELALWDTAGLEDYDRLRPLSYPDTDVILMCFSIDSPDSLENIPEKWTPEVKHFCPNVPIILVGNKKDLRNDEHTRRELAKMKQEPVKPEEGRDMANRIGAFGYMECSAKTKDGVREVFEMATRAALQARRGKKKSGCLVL
UniProt Q9BXM7, residues 78-581: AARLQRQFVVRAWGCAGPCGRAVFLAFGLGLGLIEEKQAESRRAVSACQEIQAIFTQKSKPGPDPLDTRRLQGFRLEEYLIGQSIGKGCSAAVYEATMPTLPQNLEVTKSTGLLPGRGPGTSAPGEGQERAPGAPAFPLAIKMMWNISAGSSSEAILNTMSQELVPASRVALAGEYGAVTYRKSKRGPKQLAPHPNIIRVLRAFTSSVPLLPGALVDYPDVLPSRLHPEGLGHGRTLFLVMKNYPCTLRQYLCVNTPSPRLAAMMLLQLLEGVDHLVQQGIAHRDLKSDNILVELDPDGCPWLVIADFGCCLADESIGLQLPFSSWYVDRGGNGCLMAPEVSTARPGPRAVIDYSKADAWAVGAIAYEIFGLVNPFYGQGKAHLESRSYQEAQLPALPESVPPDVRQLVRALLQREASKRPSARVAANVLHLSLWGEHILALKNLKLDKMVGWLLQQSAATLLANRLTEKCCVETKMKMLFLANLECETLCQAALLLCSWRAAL

endogenous PINK1 of 1321N1 human astrocytoma cells (from UniProt Q9BXM7 78-581)
binding: binds

— paper PMC9751115
